Results deposited as PubChem BioAssay AID1508597 (Cure First, 2020).
Assay: 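Survival screen with siRNA in ovarian cancer cells derived from patients, with or without rucaparib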 (primary screen). System: human ovarian carcinoma lines grown from tumours: OCI-P5x (papillary serous) and OCI-C5x (clear cell). Knock-down reagent: siRNA pool against human genes, 1.25 pmol siRNA per well. Timing: 72 h or 96 h, depending on the cell culture. Treatment: rucaparib 20 µM (about IC30) or vehicle, present until read-out. Rucaparib or vehicle: Vehicle. Cell line: OCI-P5x (serous). Measured: 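ATP luminescence measured at 72 or 96 h according to the culture, then normalised and expressed as percent viability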. Reading the numbers: viability, normalised: higher = more viable cells remaining. Active means: 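Active when normalised viability falls below 80 percent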. Meaning of the calls: active = viability under 80%; inactive = viability 80% or more.
Shown is a random part of the about 2,100 reagents, under one of the conditions tested. 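Calls flag viability under 80% in either arm, not effects specific to rucaparib; the reference for percent is not stated.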 A number with no mark means an inactive call. A reagent listed more than once was tested more than once; the source does not tell the runs apart. Reagent sequences are not shown. The record does not give: the 100% reference.

target gene	technical replicate	viability, normalised (%)
MUC16	1	79.3 (active)
MUC16	2	71.9 (active)
MUC16	3	71.1 (active)
PFKFB1	1	109
PFKFB1	2	99.7
PFKFB1	3	91.6
H1-9P	1	48.1 (active)
H1-9P	2	62.6 (active)
H1-9P	3	66.4 (active)
AAK1	1	66.8 (active)
AAK1	2	70.3 (active)
AAK1	3	58.2 (active)
CHD4	1	58.7 (active)
CHD4	2	64.1 (active)
CHD4	3	55.9 (active)
SMG1	1	80.7
SMG1	2	83.1
SMG1	3	72.9 (active)
CHMP4B	1	65.2 (active)
CHMP4B	2	93.4
CHMP4B	3	78.2 (active)
NEK4	1	73.5 (active)
NEK4	2	86.8
NEK4	3	93.6

Quoted from above, 7 entries:
target gene	technical replicate	viability, normalised (%)
SMG1	1	80.7
SMG1	2	83.1
SMG1	3	72.9 (active)
CHMP4B	1	65.2 (active)
CHMP4B	2	93.4
CHMP4B	3	78.2 (active)
NEK4	1	73.5 (active)

More results follow.
target gene	technical replicate	viability, normalised (%)
ITPKB	1	72.8 (active)
ITPKB	2	67.9 (active)
ITPKB	3	65.4 (active)
BCORL1	1	72.8 (active)
BCORL1	2	63.5 (active)
BCORL1	3	88.7
ADAM17	1	26.1 (active)
ADAM17	2	43.9 (active)
ADAM17	3	94.8
KALRN	1	110
KALRN	2	103
KALRN	3	108
PRKACA	1	71.3 (active)
PRKACA	2	64.2 (active)
PRKACA	3	57.4 (active)
ALKBH2	1	60.5 (active)
ALKBH2	2	51.8 (active)
ALKBH2	3	55.3 (active)
MAP3K7	1	89.6
MAP3K7	2	82.7
MAP3K7	3	66.6 (active)
AURKB	1	68.5 (active)
AURKB	1	61.6 (active)
AURKB	2	76.4 (active)
AURKB	2	81.1
AURKB	3	65.5 (active)
AURKB	3	67.8 (active)
UVRAG	1	71.5 (active)
UVRAG	2	77.9 (active)
UVRAG	3	60.3 (active)
PMVK	1	75.3 (active)
PMVK	2	71.2 (active)
PMVK	3	69.6 (active)
